Values after ≈ are worked out from the molar mass of the structure shown. Read-outs that look alike come from different tables or passages of the source.
Experiments:
[1] = tested on: VanA E. faecalis (BM 4166); experiment: In vitro antimicrobial microdilution assay (MIC); format: cell-based, Enterococcus faecalis
[2] = tested on: VanA E. faecium (ATCC BAA-2317); experiment: In vitro antimicrobial microdilution assay (MIC); format: cell-based, Enterococcus faecium
[3] = tested on: VanA E. faecalis (ATCC BAA-2573); experiment: In vitro antimicrobial microdilution assay (MIC); format: cell-based, Enterococcus faecalis
VanA E. faecium (TX2465) = experiment: In vitro antimicrobial microdilution assay (MIC); format: cell-based, Enterococcus faecium
[4] = tested on: VanB E. faecalis ATCC 51299; format: cell-based, Enterococcus faecalis
[5] = tested on: Sensitive S. aureus ATCC 25923; experiment: In vitro antimicrobial microdilution assay (MIC); format: cell-based, Staphylococcus aureus
[6] = tested on: MRSA S. aureus ATCC 43300; format: cell-based, Staphylococcus aureus
[7] = tested on: VanA VRE E. faecalis (BM 4166); experiment: Impact of added LTA, phosphate, POPE on antimicrobial activity (MIC); format: cell-based, Enterococcus faecalis; conditions: for MIC, −NaH2PO4 / MIC, −POPE: E. faecalis BM 4166; for MIC, +LTA: E. faecalis BM 4166, LTA 100 μg/mL; for MIC, +NaH2PO4: E. faecalis BM 4166, NaH2PO4 100 μg/mL; for MIC, +POPE: E. faecalis BM 4166, POPE 100 μg/mL; for MIC, −LTA: E. faecalis BM 4166, no LTA
Experimental: (§1) When NaH2PO4 or POPE was used instead of LTA, 10% brain-heart infusion broth containing 0.002% Tween®-80 with 100 μg/mL NaH2PO4 or 100 μg/mL POPE was used as the culture medium used for serial dilution. When additional G3 (H2N^+(CH2)3NHC(NH2)═NH2^+.2TFA) or Mg^2+ was used, 10% brain-heart infusion broth containing 0.002% Tween®-80 with 100 μg/mL G3 or 100 μg/mL MgCl2 and 100 μg/mL lipoteichoic acid was used as the culture medium for serial dilution of study group, 10% brain-heart infusion broth containing 0.002% Tween®-80 with 100 μg/mL G3 was used as the culture medium for serial dilution of control group.

[8] = tested on: VanA VRE E. faecium (ATCC BAA2317); format: cell-based, Enterococcus faecium; conditions: for MIC, −NaH2PO4 / MIC, −POPE: E. faecium ATCC BAA-2317; for MIC, LTA concentration 10 μg/mL: E. faecium ATCC BAA-2317, LTA 10 μg/mL; for MIC, +LTA: E. faecium ATCC BAA-2317, LTA 100 μg/mL; for MIC, +NaH2PO4: E. faecium ATCC BAA-2317, NaH2PO4 100 μg/mL; for MIC, +POPE: E. faecium ATCC BAA-2317, POPE 100 μg/mL; for MIC, −LTA: E. faecium ATCC BAA-2317, no LTA (0 μg/mL)
Experimental: as §1

VanA VRE, 4 strains = experiment: Antimicrobial activity against VanA VRE panel (4 strains), summarised in text; format: cell-based, Enterococcus faecalis, Enterococcus faecium
[9] = tested on: VanA E. faecalis BM 4166 or ATCC BAA-2573; format: cell-based, Enterococcus faecalis
[10] = tested on: two VanA VRE strains (E. faecalis BM4166, E. faecium ATCC BAA-2317); experiment: Resistance development assay, durability (serial passaging at 0.5×MIC); format: cell-based, Enterococcus faecalis, Enterococcus faecium
Experimental: The lowest concentration of antibiotic (in μg/mL) capable of eliminating cell growth in the wells is the reported MIC value.
A new MIC assay was performed with the same protocol above. This process was repeated for 50 passages, and the fold increase in MIC was determined after each passage.

[11] = tested on: VanA VRE E. faecalis BM 4166 and E. faecium ATCC BAA-2317; format: cell-based, Enterococcus faecalis, Enterococcus faecium
Experimental: The above bacterial solution was subjected to a subculture to obtain fresh mid-log phase bacterial cells (incubation time=6 hours). The bacterial suspension was diluted to a total volume of 7 mL with OD600=0.6.
After the cultured bacteria were harvested (3000 rpm, 4° C., 20 minutes), the white bacterial precipitate was washed and resuspended in 5 mM glucose and 5 mM HEPES buffer (1:1, 5.00 mL, pH=7.2).

[12] = Maximum tolerated dose (MTD) / tolerability; format: in vivo; conditions: mice, PK studies; MTD not established
[13] = Mouse pharmacokinetics, iv; conditions: for MRTlNF—obs: mice, iv
Experimental: Plasma was obtained by centrifugation using a microcentrifuge fit with a hematocrit rotor, and obtained plasma was immediately frozen. The use of micro-sampling blood collection reduces the total blood taken from the mouse and allows a single mouse to be used for the entire time course, reducing inter-individual variability and maintaining the health of the mouse.
Drug levels were determined by mass spectrometry using an ABSciex 5500 mass spectrometer using multiple reaction monitoring. […] All PK work was conducted in the Scripps Florida vivarium which is fully AAALAC accredited. Procedures were approved by the Scripps Florida IACUC, protocol number 15-022.

[14] = tested on: VanA VRE E. faecalis BM 4166 and E. faecium ATCC BAA-2317; conditions: 10 μM, LTA 100 μg/mL
[15] = tested on: VanA VRSA strain VRS2 (S. aureus); conditions: sc once at 2 hours, thigh CFU/g at 26 hours
red blood cells = experiment: Hemolysis assay

CN[C@H](CC(C)C)C(=O)N[C@H]1C(=O)N[C@@H](CC(N)=O)C(=O)N[C@H]2C(=O)NC3C(=O)N[C@H](C(=O)N[C@H](C(=O)NCCCNC(=N)N)c4cc(O)cc(O)c4-c4cc3ccc4O)[C@H](O)c3ccc(c(Cl)c3)Oc3cc2cc(c3OC2OC(CO)C(O)[C@H](O)[C@@H]2O[C@H]2CC(C)(N)[C@H](O)[C@H](C)O2)Oc2ccc(cc2Cl)[C@H]1O (some centres unmarked) [Compound 5, G3-vancomycin]
MIC, VanA E. faecalis BM 4166 [1]: 16 µg/mL (≈ 10.3 µM) | MIC, VanA E. faecium ATCC BAA-2317 [2]: 4 µg/mL (≈ 2.58 µM) | MIC, VanA E. faecalis ATCC BAA-2573 [3]: 4 µg/mL (≈ 2.58 µM) | MIC, VanA E. faecium TX2465 (VanA E. faecium (TX2465)): 16 µg/mL (≈ 10.3 µM) | MIC, VanB E. faecalis ATCC 51299 [4]: 8 µg/mL (≈ 5.17 µM) | MIC, Sensitive S. aureus ATCC 25923 [5]: 0.25 µg/mL (≈ 0.162 µM) | MIC, MRSA S. aureus ATCC 43300 [6]: 0.12 µg/mL (≈ 0.0775 µM) | MIC, −NaH2PO4 [7]: 16 µg/mL (≈ 10.3 µM) | MIC, −POPE [7]: 16 µg/mL (≈ 10.3 µM) | MIC, +LTA [7]: 16 µg/mL (≈ 10.3 µM) | MIC, +NaH2PO4 [7]: 16 µg/mL (≈ 10.3 µM) | MIC, +POPE [7]: 16 µg/mL (≈ 10.3 µM) | MIC, −LTA [7]: 16 µg/mL (≈ 10.3 µM) | MIC, −NaH2PO4 [8]: 4 µg/mL (≈ 2.58 µM) | MIC, −POPE [8]: 4 µg/mL (≈ 2.58 µM) | MIC, LTA concentration 10 μg/mL [8]: 4 µg/mL (≈ 2.58 µM) | MIC, +LTA [8]: 8 µg/mL (≈ 5.17 µM) | MIC, +NaH2PO4 [8]: 4 µg/mL (≈ 2.58 µM) | MIC, +POPE [8]: 4 µg/mL (≈ 2.58 µM) | MIC, −LTA [8]: 4 µg/mL (≈ 2.58 µM) | more potent than C1-vancomycin (Compound 3) (VanA VRE, 4 strains; VanA VRE): 4 fold | MIC, VanA E. faecalis [9]: 4 µg/mL (≈ 2.58 µM) | resistance acquisition on serial passaging ([10]; 50 passages, 0.5×MIC): lost their activity | bacterial cell membrane permeabilization ([11]; elevated concentration (50 μM)): weak permeabilization

CN[C@H](CC(C)C)C(=O)N[C@H]1C(=O)N[C@@H](CC(N)=O)C(=O)N[C@H]2C(=O)NC3C(=O)N[C@H](C(=O)N[C@H](C(=O)NCCCNC(=N)N)c4cc(O)cc(O)c4-c4cc3ccc4O)[C@H](O)c3ccc(c(Cl)c3)Oc3cc2cc(c3OC2OC(CO)C(O)[C@H](O)[C@@H]2O[C@H]2CC(C)(NCc3ccc(-c4ccc(Cl)cc4)cc3)[C@H](O)[C@H](C)O2)Oc2ccc(cc2Cl)[C@H]1O (some centres unmarked) [Compound 15, G3-CBP-vancomycin]
MIC, VanA E. faecalis BM 4166 [1]: 0.6 µg/mL (≈ 0.343 µM) | MIC, VanA E. faecium ATCC BAA-2317 [2]: 0.3 µg/mL (≈ 0.172 µM) | MIC, VanA E. faecalis ATCC BAA-2573 [3]: 0.15 µg/mL (≈ 0.0858 µM) | MIC, VanA E. faecalis TX 2465 (VanA E. faecium (TX2465); Table 2 head as printed): 0.6 µg/mL (≈ 0.343 µM) | MIC, VanB E. faecalis ATCC 51299 [4]: 0.04 µg/mL (≈ 0.0229 µM) | MIC, Sensitive S. aureus ATCC 25923 [5]: 0.04 µg/mL (≈ 0.0229 µM) | MIC, MRSA S. aureus ATCC 43300 [6]: 0.02 µg/mL (≈ 0.0114 µM) | decrease of antimicrobial activity by added LTA ([7]; 100 μg/mL LTA, both VanA VRE strains): 8 fold | effect of H2PO4^− or POPE on MIC ([7]; 100 μg/mL, both VanA VRE strains): did not alter the MIC | MIC, −NaH2PO4 [7]: 0.6 µg/mL (≈ 0.343 µM) | MIC, −POPE [7]: 0.6 µg/mL (≈ 0.343 µM) | MIC, + G3^+, +LTA ([7]; E. faecalis BM 4166, G3^+ 100 μg/mL, LTA 100 μg/mL): 5 µg/mL | MIC, + G3^+, −LTA ([7]; E. faecalis BM 4166, G3^+ 100 μg/mL, no LTA): 0.6 µg/mL | MIC, +LTA [7]: 5 µg/mL (≈ 2.86 µM) | MIC, + Mg^2+, +LTA ([7]; E. faecalis BM 4166, MgCl2 100 μg/mL, LTA 100 μg/mL): 5 µg/mL | MIC, + Mg^2+, −LTA ([7]; E. faecalis BM 4166, MgCl2 100 μg/mL, no LTA): 0.6 µg/mL | MIC, +NaH2PO4 [7]: 0.6 µg/mL (≈ 0.343 µM) | MIC, +POPE [7]: 0.6 µg/mL (≈ 0.343 µM) | MIC, −LTA [7]: 0.6 µg/mL (≈ 0.343 µM) | MIC, −NaH2PO4 [8]: 0.3 µg/mL (≈ 0.172 µM) | MIC, −POPE [8]: 0.3 µg/mL (≈ 0.172 µM) | MIC, + G3^+, +LTA ([8]; E. faecium ATCC BAA-2317, G3^+ 100 μg/mL, LTA 100 μg/mL): 2.5 µg/mL | MIC, + G3^+, −LTA ([8]; E. faecium ATCC BAA-2317, G3^+ 100 μg/mL, no LTA): 0.3 µg/mL | MIC, LTA concentration 10 μg/mL [8]: 0.6 µg/mL (≈ 0.343 µM) | MIC, +LTA [8]: 2.5 µg/mL (≈ 1.43 µM) | MIC, + Mg^2+, +LTA ([8]; E. faecium ATCC BAA-2317, MgCl2 100 μg/mL, LTA 100 μg/mL): 2.5 µg/mL | MIC, + Mg^2+, −LTA ([8]; E. faecium ATCC BAA-2317, MgCl2 100 μg/mL, no LTA): 0.3 µg/mL | MIC, +NaH2PO4 [8]: 0.3 µg/mL (≈ 0.172 µM) | MIC, +POPE [8]: 0.3 µg/mL (≈ 0.172 µM) | MIC, −LTA [8]: 0.3 µg/mL (≈ 0.172 µM) | more potent than vancomycin (VanA VRE, 4 strains): about 1000 fold | MIC, VanA E. faecalis [9]: 0.15 µg/mL (≈ 0.0858 µM) | MIC at the end of the study ([10]; 50 days): 1.2 to 2.5 µg/mL | increase in MIC ([10]; 50 days, 0.5×MIC): 4 fold | increase in MIC ([10]; over 25 days, 0.5×MIC): 2 fold | bacterial cell membrane permeabilization ([11]; 10 μM added at 5 minutes): strong membrane permeabilization | tolerated at doses up to and including [12]: ≤ 50 mg/kg | MRTlNF—obs ([13]; 10 mg/kg): 3.9 h | MRTlNF—obs ([13]; 50 mg/kg): 4.6 h | terminal half-life in mice (t1/2) ([13]; mouse, in vivo): 4.3 to 4.4 h | permeabilization in the presence of exogenous LTA [14]: nearly or completely abolished | reduction in bacterial count ([15]; 12.5 and 25 mg/kg): more than 2 log10 | reduction in bacterial count ([15]; 50 or 100 mg/kg): ~3 log10 | hemolytic activity (red blood cells): no hemolytic activity
